# From the supplement of paper PMC12067093, “Discovery and optimisation of a covalent ligand for TRIM25 and its application to targeted protein ubiquitination” (Chemical Science, 2025)
# The other results are listed elsewhere or left out.
# Compound: Cc1cc(ccc1-c1ccccc1)C(=O)N1CCCN(CC1)C(=O)CCl [compound 10]
# Assay: probe-labelled cysteine peptide fold change vs DMSO (competition) (log2 fold change); higher = less target engagement (more negative = stronger competition)
# Conditions: THP-1, incubation time: 4 h
# 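Note: competitive profiling in live THP-1 cells: cysteine peptides tagged with an iodoacetamide desthiobiotin (IA-DTB) probe, intensity after compound treatment relative to DMSO-treated cells.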
Target,probe-labelled cysteine peptide fold change (10 µM),probe-labelled cysteine peptide fold change (50 µM)
IARS_P41252_526_ISEVFDCWFESGSMPYAQVHYPFENKR (UniProt P41252),-3.87e-05,-0.0922
IGF2R_P11717_174_EVPCYVFDEELR (UniProt P11717),-0.173,-0.0557
ICAM3_P32942_407_ATCPQHLK (UniProt P32942),-0.228,-0.234
INF2_Q27J81_971_KGPGKQEEVCVIDALLADIR (UniProt Q27J81),-0.149,-0.516
IDNK_Q5T6J7_63_GIPLNDQDRIPWLCNLHDILLR (UniProt Q5T6J7),-0.171,0.128
IGF2R_P11717_1598_DGSPCPSK (UniProt P11717),-0.127,-0.213
INO80_Q9ULG1_765_DVENELSDKIEILMYCQLTSR (UniProt Q9ULG1),0.195,0.306
INF2_Q27J81_898_ELADYLCEDAQQLSLEDTFSTMK (UniProt Q27J81),-0.0546,0.129
INO80_Q9ULG1_1026_VTAVPLDSYCNDR (UniProt Q9ULG1),-0.0599,0.202
IDH1_O75874_73_CATITPDEK (UniProt O75874),-0.251,-0.0125
ING2_Q9H160_34_LLTCYVQDYLECVESLPHDMQR (UniProt Q9H160),-0.0543,0.0393
ILF2_Q12905_37_PFVPHIPFDFYLCEMAFPR (UniProt Q12905),0.0684,0.31
IDH3G_P51553_236_LGDGLFLQCCR (UniProt P51553),-0.0541,0.21
ILF2_Q12905_311_VHTVMTLEQQDMVCYTAQTLVR (UniProt Q12905),0.0654,0.108
IFT172_Q9UG01_1686_ALPCLITGYPILR (UniProt Q9UG01),-0.241,-0.159
IDE_P14735_171_FAQFFLCPLFDESCK (UniProt P14735),-0.0625,0.142
INPP5B_P32019_475_FQFHNTSICVVNSHLAAHIEEYER (UniProt P32019),0.129,0.0857
IFIH1_Q9BYX4_138_CMEEELLTIEDR (UniProt Q9BYX4),0.00756,-0.118
ILKAP_Q9H0C8_301_CGVTSVPDIR (UniProt Q9H0C8),-0.0284,-0.199
IMPA2_O14732_90_CVLTHSPTWIIDPIDGTCNFVHR (UniProt O14732),0.0244,0.0597
ICAM3_P32942_139_CQVEDGSPR (UniProt P32942),-0.173,-0.194
IARS_P41252_336_VCMDFNIIRK (UniProt P41252),0.0236,-0.432

# An excerpt of these results, as tab-separated lines:
Target	probe-labelled cysteine peptide fold change (10 µM)	probe-labelled cysteine peptide fold change (50 µM)
ILF2_Q12905_37_PFVPHIPFDFYLCEMAFPR (UniProt Q12905)	0.0684	0.31
IDH3G_P51553_236_LGDGLFLQCCR (UniProt P51553)	-0.0541	0.21
ILF2_Q12905_311_VHTVMTLEQQDMVCYTAQTLVR (UniProt Q12905)	0.0654	0.108

# The results go on.

Target,probe-labelled cysteine peptide fold change (10 µM),probe-labelled cysteine peptide fold change (50 µM)
IL1RAP_Q9NPH3_24_CDDWGLDTMR (UniProt Q9NPH3),-0.27,-0.186
IL17RA_Q96F46_632_EPGSQACLAIDPLVGEEGGAAVAK (UniProt Q96F46),-0.0942,0.0011
INPP5D_Q92835_736_CYATLK (UniProt Q92835),0.0662,0.0217
IL18_Q14116_74_NLNDQVLFIDQGNRPLFEDMTDSDCRDNAPR (UniProt Q14116),-0.0741,-0.334
HUWE1_Q7Z6Z7_2106_EDCSVLAFVLDHLLPHTQNAEDK (UniProt Q7Z6Z7),0.0641,0.115
IFI35_P80217_193_LCQIGQFTVPLGGQQVPLR (UniProt P80217),0.247,0.762
IKBKB_O14920_524_EMEQAVELCGR (UniProt O14920),0.0407,0.0999
IGF2R_P11717_1516_SNEHDDCQVTNPSTGHLFDLSSLSGR (UniProt P11717),-0.253,-0.076
IGF2R_P11717_475_EKEDLLCGATDGK (UniProt P11717),-0.2,-0.183
HUWE1_Q7Z6Z7_3333_HASGGSTVHIHPQAAPVVCR (UniProt Q7Z6Z7),0.293,0.0771
IKZF1_Q13422_175+178_CHLCNYACR (UniProt Q13422),-0.0534,-0.482
INF2_Q27J81_971_QEEVCVIDALLADIR (UniProt Q27J81),-0.0972,0.0984
IDH3G_P51553_333_NIANPTATLLASCMMLDHLK (UniProt P51553),0.0642,0.0528
ILF3_Q12906_278_RVLECLASGIVMPDGSGIYDPCEK (UniProt Q12906),0.173,-0.227
ING2_Q9H160_26_LLTCYVQDYLECVESLPHDMQR (UniProt Q9H160),-0.424,-0.0276
IGF2R_P11717_1476_FTCSESQVNSR (UniProt P11717),-0.0355,-0.0824
IMPDH2_P12268_246_QLLCGAAIGTHEDDK (UniProt P12268),0.0104,0.208
IARS_P41252_87_FGWDCHGLPVEYEIDK (UniProt P41252),0.0774,-0.184
ILVBL_A1L0T0_354_KADVIVLAGTVCDFR (UniProt A1L0T0),0.0545,0.141
ILVBL_A1L0T0_354_ADVIVLAGTVCDFR (UniProt A1L0T0),-0.0184,0.266
HUWE1_Q7Z6Z7_2721_DQSAQCTASK (UniProt Q7Z6Z7),-0.0419,-0.255
